Measurements: paper PMC5472786
No constants are given. Whether binding was seen depends on the method and setting. In cells and extracts the contact can be indirect. Some entries that bind do so weakly or less than the wild type.

The chains behind the UniProt entries cited, without tags or fusion partners.
UniProt P53115: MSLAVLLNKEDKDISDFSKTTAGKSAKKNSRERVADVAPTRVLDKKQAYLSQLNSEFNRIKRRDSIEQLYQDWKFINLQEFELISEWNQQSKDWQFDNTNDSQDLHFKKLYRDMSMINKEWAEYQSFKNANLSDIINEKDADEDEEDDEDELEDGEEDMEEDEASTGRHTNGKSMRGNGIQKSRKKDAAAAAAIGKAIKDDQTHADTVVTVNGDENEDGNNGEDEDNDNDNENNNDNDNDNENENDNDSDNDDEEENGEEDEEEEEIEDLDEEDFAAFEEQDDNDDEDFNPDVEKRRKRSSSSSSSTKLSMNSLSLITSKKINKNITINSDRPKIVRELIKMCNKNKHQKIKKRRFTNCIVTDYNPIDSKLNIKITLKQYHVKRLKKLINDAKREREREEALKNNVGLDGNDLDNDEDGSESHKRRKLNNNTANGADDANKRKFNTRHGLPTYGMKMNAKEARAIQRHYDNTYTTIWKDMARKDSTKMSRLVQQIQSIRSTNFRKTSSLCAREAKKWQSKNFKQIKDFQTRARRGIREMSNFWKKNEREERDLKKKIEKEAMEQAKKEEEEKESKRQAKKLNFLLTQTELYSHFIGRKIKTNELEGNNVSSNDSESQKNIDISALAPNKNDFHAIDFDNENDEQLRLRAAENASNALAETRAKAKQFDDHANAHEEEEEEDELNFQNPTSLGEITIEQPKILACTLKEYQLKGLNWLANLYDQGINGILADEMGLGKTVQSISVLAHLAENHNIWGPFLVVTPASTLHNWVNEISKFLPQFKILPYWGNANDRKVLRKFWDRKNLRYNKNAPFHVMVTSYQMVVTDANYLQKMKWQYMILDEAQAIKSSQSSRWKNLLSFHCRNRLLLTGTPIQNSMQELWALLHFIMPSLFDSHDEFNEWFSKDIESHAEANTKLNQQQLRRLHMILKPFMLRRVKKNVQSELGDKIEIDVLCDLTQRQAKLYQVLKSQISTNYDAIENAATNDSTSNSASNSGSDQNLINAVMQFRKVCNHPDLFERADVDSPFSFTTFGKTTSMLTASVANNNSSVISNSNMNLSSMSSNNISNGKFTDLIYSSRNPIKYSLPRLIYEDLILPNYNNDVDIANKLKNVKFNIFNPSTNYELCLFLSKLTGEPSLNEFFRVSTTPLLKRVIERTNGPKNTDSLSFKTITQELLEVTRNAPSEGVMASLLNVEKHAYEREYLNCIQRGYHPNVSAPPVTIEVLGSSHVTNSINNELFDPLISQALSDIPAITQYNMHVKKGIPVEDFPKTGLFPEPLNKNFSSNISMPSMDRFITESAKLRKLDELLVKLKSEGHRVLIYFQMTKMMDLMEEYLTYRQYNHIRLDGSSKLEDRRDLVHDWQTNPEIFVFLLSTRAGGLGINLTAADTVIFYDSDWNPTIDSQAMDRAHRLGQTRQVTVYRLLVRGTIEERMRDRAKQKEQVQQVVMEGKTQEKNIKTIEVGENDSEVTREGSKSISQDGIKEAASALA

Target: Ino80, catalytic subunit of the INO80 complex, with C-terminal double FLAG tag (Saccharomyces cerevisiae) (UniProt P53115)
Test: co-IP; INO80 complex purified from yeast through the double FLAG tag on Ino80 (ANTI-FLAG M2 Affinity Gel, FLAG peptide elution); subunits seen on SDS-PAGE after DNA photo-crosslinking and label transfer, Arp4 told from Ies2 by immunoprecipitation of Arp4

binding: binds
B1: Ies2 (protein, UniProt P40154 1-320)
chain: MDSEASDIEAELSDSVSAGGEEYIDDDDYTEDIDDQIVTAKSSRRTARRSVPKGVRTSKRIRDKELSVEVDEDYDEEEDVLSPSKKRHLHTRSMDKRQVAATASEKSDIGDSKGNDGEIEDGILEEEESLEKELNRGGGKEVEKSEESYYAQNDVGQKGEEEQDGESGGYEDNEPSISKESDELVSVVNGNGNEEDDEVEATKENTTDSTRSTTTRSKMLLDLLEDGGSKKKLTDEEIQLRRAENARKRKNLSEKRLEEEKQDTINKLLKKRAGKSRSHLPNDDEKNDGSSSFVKPRRPYNSEGMTRILRRYEEDLFCTF
